Results are given in words; binding and its absence hold for the method and conditions named. Some binding calls cover weakened binding; strength is not graded here.
Assays:
[1] = biological target: human integrin β7 variant H38D (human) (UniProt P26010); assay: FACS (MFI) of 293T cells expressing the variant; kept binding is implied by the sentence
[2] = biological target: human integrin β7 variant M41L/L42Q (human) (UniProt P26010); assay: as above
[3] = biological target: human integrin β7 variant R35E/N36D (human) (UniProt P26010); assay: as above
[4] = biological target: chimeric integrin β7 protein (#4944) (mouse; human) (UniProt P26011); assay: FACS of 293T cells transiently expressing the chimera
[5] = biological target: chimeric integrin β7 protein (#4945) (mouse; human) (UniProt P26011); assay: as above

Amino acid sequences for entries named in this document (tags omitted). A change or cut given only in a name is not applied to a line headed by its entry.
UniProt P26010: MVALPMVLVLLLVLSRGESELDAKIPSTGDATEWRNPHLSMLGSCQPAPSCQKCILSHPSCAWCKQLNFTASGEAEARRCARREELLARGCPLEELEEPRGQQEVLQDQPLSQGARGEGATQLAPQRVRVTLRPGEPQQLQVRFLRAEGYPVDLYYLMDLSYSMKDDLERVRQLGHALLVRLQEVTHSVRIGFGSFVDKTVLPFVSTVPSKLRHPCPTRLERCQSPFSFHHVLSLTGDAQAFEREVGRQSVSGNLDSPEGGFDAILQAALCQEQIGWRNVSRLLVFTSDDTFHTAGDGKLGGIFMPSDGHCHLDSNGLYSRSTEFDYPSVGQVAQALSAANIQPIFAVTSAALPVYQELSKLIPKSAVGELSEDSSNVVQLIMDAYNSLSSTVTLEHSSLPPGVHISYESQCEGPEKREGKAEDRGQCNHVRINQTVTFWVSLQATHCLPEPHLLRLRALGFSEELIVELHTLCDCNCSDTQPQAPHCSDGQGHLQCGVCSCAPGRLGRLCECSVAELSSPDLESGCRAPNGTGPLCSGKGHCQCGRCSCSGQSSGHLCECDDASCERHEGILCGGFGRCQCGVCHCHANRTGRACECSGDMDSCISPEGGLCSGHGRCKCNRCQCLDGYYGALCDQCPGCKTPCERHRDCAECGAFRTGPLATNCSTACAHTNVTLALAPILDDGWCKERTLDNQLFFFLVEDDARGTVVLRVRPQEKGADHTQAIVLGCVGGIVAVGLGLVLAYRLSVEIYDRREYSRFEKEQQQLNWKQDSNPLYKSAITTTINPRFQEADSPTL

Measured: binding

B1: MMG49 antibody (antibody, V domains shown)
VH: QVQLQQSGAELMKPGASVKISCKASGYTFSSYWIEWVKQRPGHGLEWIGEMLPGSGSSNYNEKFKGKATFTADTSSNTAYMQLSSLTSEDSAVYYCARGDGNYWYFDVWGAG
VL: QIVLSQSPAILSASPGEKVTMTCRASSSVGYMHWFQQKPGSSPKPWIYATSNLASGVPARFSGSESGTSYSLTISRVEAEDAATYYCQQWSSDPPTFGGGTKLEIK
binds: all assays above
